The list shows a part of the results.

Amino acid sequences for entries named in this document (tags omitted).
UniProt Q0JBA9, entry or part of it: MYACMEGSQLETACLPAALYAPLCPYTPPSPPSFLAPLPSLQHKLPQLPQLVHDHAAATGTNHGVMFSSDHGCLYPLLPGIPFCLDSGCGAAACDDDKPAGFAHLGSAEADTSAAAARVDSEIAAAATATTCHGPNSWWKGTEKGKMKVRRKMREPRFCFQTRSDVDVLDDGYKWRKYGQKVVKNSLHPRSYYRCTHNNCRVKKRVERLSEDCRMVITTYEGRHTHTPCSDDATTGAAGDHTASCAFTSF

The assay addresses OsWRKY34 (Oryza sativa, UniProt Q0JBA9 1-250). In words: protein-binding microarray (RPBM); PBS, 2% BSA, 51.3 ng/ul salmon testes DNA, 50 uM zinc acetate, 200 nM TF, 25 C, 1 h; high values mean tight binding. As to conditions: protein: recombinant; tags: N-terminal polyhistidine and DsRed monomer fusion (pET32a); label: CyDye5-dUTP incorporated in the synthesized complementary strand; 3' TTTTT single-stranded linker to array surface; dsDNA, one strand shown. In short, it runs like this: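 Transcription factors were made in E. coli BL21-CodonPlus as N-terminal fusions to a polyhistidine tag and DsRed, then purified on Ni–NTA. After primer extension with Cy5-dUTP and blocking with 2% BSA, a custom Agilent array was exposed for 1 h at 25 °C to 200 nM protein in PBS, 2% BSA, salmon testes DNA and 50 µM zinc acetate. Washed arrays were scanned on an Axon 4000B, and the binding signal is per-feature fluorescence intensity in arbitrary units.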
Turning to “CGGAGTTCTTCGTGGGCCTCGATCTACCGGCCTTCGCCTTCGGAGTCACCTAGTGCAG”, the binding signal was 8870 fluorescence intensity (a.u.).
On to “GACGGAATTTCTTCCGCCTAGGTCTCCCGGCGCCGACCTCCGGAGTCACCTAGTGCAG”, for which the binding signal is 8170 fluorescence intensity (a.u.).
Turning to “AAACCACGGCATTTTCCTCGCTCCCTTCTCTTCTTCCTTTCGGAGTCACCTAGTGCAG”, the binding signal is 8750 fluorescence intensity (a.u.).
Take “GTCTCTCACTCTCTCTTTCTCTCTCGACCACCACTACCACCGGAGTCACCTAGTGCAG”: the binding signal was 9000 fluorescence intensity (a.u.).
As for “TCCATCCATCCATCTCTCCTGCAGCTGCAGTGCAGGCGAGCGGAGTCACCTAGTGCAG”, the binding signal was 8380 fluorescence intensity (a.u.).
With “ATCTTTTTGTTGTCTTTGAATTCAGTCTGTTTTTCTCATTCGGAGTCACCTAGTGCAG”, the binding signal was 17900 fluorescence intensity (a.u.).
As for “TGGGAGATGGGGATGGTGGCTGGCAGGTGGGGCCAATGGTCGGAGTCACCTAGTGCAG”, the figure is 11000 fluorescence intensity (a.u.).
As for “GCTTTCACCTGCCACCTACTCCACCTAACAAACACTACTCCGGAGTCACCTAGTGCAG”, the figure is 8860 fluorescence intensity (a.u.).
For the sequence “TGCCAGCACAAATCTCGAAGCACATCCAATGATCCAAGACCGGAGTCACCTAGTGCAG”, the binding signal was 9540 fluorescence intensity (a.u.).
“ACTCCCTCGTCATTTCCTTCCCTAGACCCCTTCTCACGCCCGGAGTCACCTAGTGCAG”: the binding signal is 8830 fluorescence intensity (a.u.).
In the case of “GATCTATCGTATCAATGGATGGTGCTTCAATTTGTTCTTACGGAGTCACCTAGTGCAG”, the binding signal is 9310 fluorescence intensity (a.u.).
As for “CAATTTTTCCACTGTATTGACAATGCACAACATGCCCGATCGGAGTCACCTAGTGCAG”, the figure is 9000 fluorescence intensity (a.u.).
As for “AGCATATATTAATTATATATATTGCATGTATTTTATTTTTCGGAGTCACCTAGTGCAG”, the binding signal is 8290 fluorescence intensity (a.u.).
For “TGTTGTTTTTGTTTCTTCATATGTTGTTGATCGAATTTAGCGGAGTCACCTAGTGCAG”, the binding signal is 12000 fluorescence intensity (a.u.).
As to “TGAGCCCATCCATTTTGACCCATGCCATCCTGGTCCTATACGGAGTCACCTAGTGCAG”, the binding signal is 9080 fluorescence intensity (a.u.).
The same measure for “GAGTGGTAAGAGTTGTGTGGTTTTAACTTTGATCCAGTTCCGGAGTCACCTAGTGCAG”: 10100 fluorescence intensity (a.u.); for “TGTCTTTATTAAGTGCAAATGTATTTGGATTCCAACCCTTCGGAGTCACCTAGTGCAG”: 8180 fluorescence intensity (a.u.).
Consider “GGACGCTTGTCAATGGCATTTCTTGAATTATCTCTTCTCTCGGAGTCACCTAGTGCAG”, for which the binding signal was 9110 fluorescence intensity (a.u.).
In the case of “CTGCCTGCTCATGAGTCATGACATATACTAGCTTGATCAACGGAGTCACCTAGTGCAG”, the binding signal is 8230 fluorescence intensity (a.u.).
As for “TAGCCCGTTCTTTTTGACTCCGCGGTGACTCGCGCGCTCTCGGAGTCACCTAGTGCAG”, the binding signal was 10600 fluorescence intensity (a.u.).
For the sequence “CTTTCGTCTCGGTCTTTGTGGTCTTGGAGTCCATTCTTCACGGAGTCACCTAGTGCAG”, the binding signal is 10600 fluorescence intensity (a.u.).
As for “GCTGTATGTTTTTACCTCTTTTTTTTTTGTTTTCATTATTCGGAGTCACCTAGTGCAG”, the figure is 10300 fluorescence intensity (a.u.).
Regarding “TCTTCTTCTTATCTCTATACTCCGTAGTACATATACACGCCGGAGTCACCTAGTGCAG”, the binding signal was 8990 fluorescence intensity (a.u.).
The same measure for “AACTACCCCTGTCTGTGCCACCCATCTCTCCAGATTAGGACGGAGTCACCTAGTGCAG”: 8930 fluorescence intensity (a.u.); for “TCGTCGCCGGGTTCCTCATCGTCACCTGCGCCTACTTCTCCGGAGTCACCTAGTGCAG”: 8250 fluorescence intensity (a.u.).
For “GTTCTTCAACCTATGGAAGTCGGTATGACACTTCTGATTCCGGAGTCACCTAGTGCAG”, the binding signal is 8200 fluorescence intensity (a.u.).
The same measure for “GCACGTACGGGTATCACCTTCTTGTTATCAGTAACTACTCCGGAGTCACCTAGTGCAG”: 8040 fluorescence intensity (a.u.); for “TAAAAATTTTTAGTGTTCGTTTGCTGGGTTGGTAACTAATCGGAGTCACCTAGTGCAG”: 9660 fluorescence intensity (a.u.).
Turning to “GGTTGGGATTTGGTGTCTGCTTTGGAATTACAATTTTAGTCGGAGTCACCTAGTGCAG”, the binding signal was 9590 fluorescence intensity (a.u.).
“ATCTCAGCATTTTCTCCAGTTTTTCTCCTACTCTTAACTCCGGAGTCACCTAGTGCAG”: the binding signal is 9740 fluorescence intensity (a.u.).
For “AACCTCGCCATCTTTCTCTGACATGTCGCTCACCGCTGTGCGGAGTCACCTAGTGCAG”, the binding signal was 12800 fluorescence intensity (a.u.).
As to “GGCCTAATTATTGCCTTAATTTTTCTCTTTGGTTTTCTCACGGAGTCACCTAGTGCAG”, the binding signal is 9070 fluorescence intensity (a.u.).
The same measure for “CTTGTTATTTCTTTTAACTTTTTTGCTCTTAATCTGAATCCGGAGTCACCTAGTGCAG”: 8300 fluorescence intensity (a.u.); for “GCCTAGTGGAGGGGATGGTTGGGGATGAGCATTAGGTGTCCGGAGTCACCTAGTGCAG”: 11000 fluorescence intensity (a.u.).
For the sequence “ATATTTGCATTGCTCCAATTCTTCAGCCAGCGAGTTTATACGGAGTCACCTAGTGCAG”, the binding signal is 9560 fluorescence intensity (a.u.).
Regarding “AGAGACCCGCCGCCGCCGTCTTTGCAGCCGCCCGGCTTTGCGGAGTCACCTAGTGCAG”, the binding signal was 8260 fluorescence intensity (a.u.).
On to “GAGAATAATAGTCAATCTGTAGCTCAGTGCCCTTTTCTTCCGGAGTCACCTAGTGCAG”, for which the binding signal was 8140 fluorescence intensity (a.u.).
The same measure for “GAACAGCTCAGCTCACCGCATCCTTTGACTTTTTAACCAGCGGAGTCACCTAGTGCAG”: 18100 fluorescence intensity (a.u.); for “GCCACCATGCACCATCCCTGGCCCTCGCAGACCCTCAATACGGAGTCACCTAGTGCAG”: 10000 fluorescence intensity (a.u.); for “TGTGTTGTTGTCACACTGTTGCGTGTGTCAGATGCAGGAACGGAGTCACCTAGTGCAG”: 9770 fluorescence intensity (a.u.).
Take “TATTTCTGTGGGAGGAGGGTCCAGGAGATGAGAGGGGCGGCGGAGTCACCTAGTGCAG”: the binding signal was 11700 fluorescence intensity (a.u.).
As for “GGCTTGTTCACTTTATCGCGTTTTGGCATTACCAAATTTTCGGAGTCACCTAGTGCAG”, the binding signal is 15000 fluorescence intensity (a.u.).

For the origin of these results see paper PMC7819943, “Rice protein-binding microarrays: a tool to detect cis-acting elements near promoter regions in rice”.
